Some of the results follow.
B1: il10ra_site1_sap_17_mot_HHH_b2_07758_000000036_0001_41_55_H_._HHH_b2_04674_0001_0000400046_0000002_0_0001 (protein)
chain: SSSSSARELYELLRRAMELLRNGNPEEARKLLEEAQEIAEEANNRVLLLNIRYVLRQVERNSSSS
B2: il10ra_site1_sap_23_mot_39ab2cb694c8b9c1dc7e65c0d672c93e_0001_000000036_0001_53_65_H_._HHH_b2_08014_af2_0001_0000200003_0000002_0_0001 (protein)
chain: SSSSSDEEIEERVEELLEEAERITDPRKAIELLLEATHLAWEAQDPELLRLVWRVVHRLSSSSSS
B3: il10ra_site1_sap_22_mot_HHH_b2_02447_000000247_0001_1_18_H_._HHH_b2_07579_0001_0000100003_0000001_0_0001 (protein)
chain: SSSSSSDLEELVEEAEEVAEERGNRAAAFLLRQALEAYKLAGDPHVEENIRNLLRLVLSSSSSSS
B4: il10ra_site1_normal_mot_HHH_b2_03328_af2_000000127_0001_1_19_H_._HHH_b1_00148_0001_0000400018_0000002_0 (protein)
chain: SSSSDSRELYRLSREAAELFAEGNPEEAEEVLEEAIRIAQEAGNFILLFALEHLLRAIRESSSSS
B5: il10ra_site1_normal_mot_HHH_b2_08186_000000021_0001_43_56_H_._HHH_b1_07250_0001_0000200046_0000001_0 (protein)
chain: SSSSSIEEEIKELLEEIERAIEEGDKEEANRLLLRVLRLVLEANDAELLQRVWELLRLLASSSSS
B6: il10ra_site1_sap_16_mot_HHH_b2_00943_af2_000000149_0001_1_17_H_._HHH_b1_07249_0001_0000300022_0000001_0_0001 (protein)
chain: SSSSDVAELVRKVFEELLRLLREGNEEEAEKLVQEVLKELEERGDRLAVLVLKWAAERQRSSSSS
B7: il10ra_site1_normal_mot_HHH_b2_07440_af2_000000021_0001_1_18_H_._HHH_b1_03012_af2_0001_0000400012_0000002_0 (protein)
chain: SSSSDEELEEALRLSLEAFRLALRGNEEEARKVLEEAERLLEELGDPRALRIVRDLLRALSSSSS
B8: il10ra_site1_sap_18_mot_HHH_b1_08411_af2_000000053_0001_1_20_H_._HHH_b2_06398_0001_0000100001_0000002_0_0001_af2pred_0001 (protein)
chain: SSSSSREERLEELLERIEEALEEGDEELVLRLLLEVVKFALRLGDEEIIKRILELAEKLRSSSSS
B9: il10ra_site1_normal_mot_HHH_b2_08186_000000021_0001_43_56_H_._HHH_b2_01076_0001_0000100002_0000001_0 (protein)
chain: SSSSSSSSEVEEEVRRLLEEAEENPERAQRLLAEALRLAYEHSNQELLQEIWKVLRELSSSSSSS
B10: il10ra_site1_sap_9_mot_HHH_b2_04592_000000276_0001_41_54_H_._HHH_b2_05302_0001_0000100006_0000001_0_0001 (protein)
chain: SSSSSSRELYELSREAAELLRNGDPERAQEVVEEAIELAEEENNFAILFALRHLLRAIESSSSSS
B11: il10ra_site1_sap_17_mot_HHH_b2_05084_af2_000000250_0001_43_57_H_._26d30dbd745481c7b488aecb30247ba4_0001_0001_0000800006_0000001_0_0001_af2pred_0001 (protein)
chain: SSSSSSEEVIKLSRRALELYKDGNEEEAKEVLEEARELAEELNNELLRFLIESLQRRLDSSSSSS
B12: il10ra_site1_sap_24_mot_HHH_b1_02881_000000046_0001_1_20_H_._HHH_b1_02292_0001_0000300031_0000001_0_0001 (protein)
chain: SSSSSLHREVYELLREAAELDHEGNPEEAREVVEEALRIAEELGNWAFAEQARFLLRLIENSSSS
B13: il10ra_site1_sap_34_mot_HHH_b2_07145_000000158_0001_24_40_H_._HHH_b1_04490_af2_0001_0000100002_0000002_0_0001 (protein)
chain: SSSSTDKELIEAALRLLEQAIKHGDEELARFMIIAIRMKVEETNDEELEELLRELEKELNSSSSS
B14: il10ra_site1_normal_mot_HHH_b1_07641_af2_000000285_0001_1_21_H_._HHH_b1_00573_af2_0001_0000400014_0000002_0 (protein)
chain: SSSSSDEDSERVMELVERIAELAQEGNPEEARELLEELEELVRKLNNPIFEFVLRLLERDLSSSS
B15: il10ra_site1_normal_mot_HHH_b1_05056_000000217_0001_1_20_H_._HHH_b2_04275_0001_0000400021_0000001_0 (protein)
chain: SSSSSSEESEELLEELEEALRRGDRELIQELARRIIQEAFRLSDEELLQALWRLVKEYASSSSSS
B16: il10ra_site1_normal_mot_HHH_b1_06837_000000150_0001_20_37_H_._HHH_b2_08002_0001_0000100001_0000001_0 (protein)
chain: SSSSSDSERIYELSRKAAELHHEGNKEEAEKVLEEALELAEEAGNEVLLATLEFLERQIKSSSSS
B17: il10ra_site1_sap_11_mot_05ca327611f5605f0dd8494b449afcbf_0001_1_000000248_0001_35_51_H_._HHH_b1_07055_0001_0000900074_0000001_0_0001 (protein)
chain: SSSSSDEDQELLELLHELIELLLRGDEEEARRLAEEILRLAEELNDEKVFEMAEDLLKAISSSSS
B18: il10ra_site1_normal_mot_HHH_b1_02397_af2_000000085_0001_39_57_H_._HHH_b2_00805_0001_0000300013_0000001_0 (protein)
chain: SSSSSSDLEEYLEEIEELIEKGNPEEAARVSQEALRLIFRRGDEEALKLLWELNKLMASSSSSSS
B19: il10ra_site1_normal_mot_HHH_b2_04945_000000076_0001_1_19_H_._HHH_b2_00860_0001_0000100001_0000001_0 (protein)
chain: SSSSSADELFRRVRELIEKATQIEDEREAQELLEEALELAEENNNQVFEWAIRYLLELLRSSSSS
B20: il10ra_site1_sap_13_mot_HHH_b2_02693_af2_000000213_0001_19_35_H_._HHH_b2_05121_af2_0001_0000400021_0000003_0_0001_af2pred_0001 (protein)
chain: SSSSSQEEHVARIAEKALERLLELGDEERLRLTLRFIKFLAEQANDPEARELVEEIERLGSSSSS
B21: il10ra_site1_normal_mot_0750aae41c39e4229e2ea8fa354cc919_0001_1_000000144_0001_37_51_H_._ems_p1-16H-GBL-16H-GABBL-16H_0036_0001_0001_0002_af2_0001_0000200003_00 … (protein)
chain: SSSSAEVDAVLAEARRLATAAGDEKALAAIDYYEELKKLGKADPERLLAAATALLRYLLESSSSS
B22: il10ra_site1_normal_mot_fda5df8c19bda1ddfcc41857df859eb0_0001_1_000000120_0001_35_49_H_._HEEHE_0280_af2_0001_0000500008_0000001_0_af2pred_0001 (protein)
chain: SKEEATEKSIRAIAERAGVPSVEVTIENGEWHVTFSGDDERARYAAFTIEALARLLNLEVNLELK
B23: il10ra_site1_sap_16_mot_HHH_b1_06914_000000280_0001_1_18_H_._HHH_b1_05069_af2_0001_0000200005_0000001_0_0001 (protein)
chain: SSSSDEADEVFRLIEKAVELSRKDPEEAEEVLKRAEKIAEELGNRIMRWVIEFLERHIEELSSSS
B24: il10ra_site1_normal_mot_HHH_b1_06837_000000150_0001_20_37_H_._HHH_b1_05845_0001_0000600050_0000001_0 (protein)
chain: SSSSTEEIYKLLREASELLQEGNPEEAEKLLEEAERLAEELGNEVLLATIRALLRLIQRFLSSSS
B25: il10ra_site1_sap_19_mot_HHH_b1_03763_000000209_0001_22_38_H_._HHH_b2_03541_0001_0000200007_0000001_0_0001 (protein)
chain: SSSSSNEVAELLFKALRLLAEGNPEEAEEVAREAKELAEELGDEELLRYVEILKHFIEAHSSSSS
B26: il10ra_site1_normal_mot_HHH_b2_02537_000000065_0001_1_20_H_._HHH_b2_04376_0001_0000100013_0000001_0 (protein)
chain: SSSDEAFEIVRRAIERAAELARQGNPEEAEEVLERAREVAEENNNQALRFSLEQLLRAIEESSSS
B27: il10ra_site1_normal_mot_HHH_b2_04945_000000076_0001_1_19_H_._HHH_b2_05056_0001_0000400022_0000001_0 (protein)
chain: SSSSTDELFEEVRRIIEEAVRLYREGNPEEARRLVEEALELAEENNNFALVFALEHLLRDLSSSS
B28: il10ra_site1_sap_11_mot_HHH_b1_00456_000000263_0001_1_17_H_._HHH_b2_06141_0001_0000200005_0000001_0_0001_af2pred_0001 (protein)
chain: SSSSDIAERLVELALEAARLAAERGDPEAVRRALEQAEHLAKLNNNPELEEEVKELEEELSSSSS
B29: il10ra_site1_sap_27_mot_HHH_b2_07569_000000265_0001_38_56_H_._HHH_b1_08691_0001_0000200011_0000001_0_0001_af2pred_0001 (protein)
chain: SSSSDHNEEAIKRLLKAAKLLEDPERAKLAVRFALALARALNNEELEEEIRKLLEELEEGSSSSS
B30: il10ra_site1_sap_21_mot_HHH_b1_00682_000000211_0001_1_20_H_._HHH_b2_01629_0001_0000300032_0000001_0_0001_1 (protein)
chain: SSSSSRELYELSREVARLDHEGDFEEAERVVREAIELAEEENNWNMLFNLRHMLRVIEEELSSSS
B31: il10ra_site1_sap_13_mot_HHH_b1_04693_000000238_0001_19_36_H_._HHH_b1_07804_0001_0000300023_0000001_0_0001 (protein)
chain: SSSSDEELEELFRLLREAIELHSEGNEEEAEKVLEEVIELARELGNRLMLLQAEFALRMISSSSS
B32: il10ra_site1_sap_25_mot_HHH_b1_03260_000000175_0001_42_57_H_._HHH_b2_05910_0001_0000300016_0000002_0_0001 (protein)
chain: SSSSDEEVEELEEEAEEQLERLLREGNHQEAFRLLEEVARRLLELGDPEAVRRLIHFFIRISSSS
B33: il10ra_site1_normal_mot_HHH_b2_07569_000000265_0001_38_56_H_._HHH_b1_00069_af2_0001_0000200023_0000001_0 (protein)
chain: SSSSDEEERLKELEEELEEAVRRGDEQLVLELAIEALRLAFRLSDDEVVQEIWELVKKAFSSSSS
B34: il10ra_site1_normal_mot_HHH_b2_07579_000000275_0001_1_19_H_._HHH_b2_01201_0001_0000100002_0000001_1_af2pred_0001 (protein)
chain: SSSSSSSEVEEILRLQEEALHIEDPEEAREVLEEAIELAEKAGDEVIVKILRRLLKLLSSSSSSS
B35: il10ra_site1_sap_12_mot_HHH_b1_06256_000000091_0001_42_58_H_._HHH_b1_03525_0001_0000200007_0000001_0_0001_af2pred_0001 (protein)
chain: SSSSTSEEDFKLALRLARQLAEAENDEEAKEKIEELEEEYREKKDPQILHELIRLIKELANSSSS
B36: il10ra_site1_sap_26_mot_HHH_b1_03531_000000273_0001_41_54_H_._HHH_b1_06918_0001_0000200023_0000001_0_0001_af2pred_0001 (protein)
chain: SSSSDAERSARILALFAERALKEGDEEAVELTIKLLKSLAEATNDPEIEELARELEELLGSSSSS
B37: il10ra_site1_sap_25_mot_HHH_b1_01879_000000050_0001_1_18_H_._HHH_b1_03473_af2_0001_0000100001_0000001_1_0001_af2pred_0001 (protein)
chain: SSSSSEDEERIEELIERIEELLKEGDEEKVLKLLLELAQLALKTEDEEATRFVLEVAELLSSSSS

The binders below were run against il10ra, Q13651 (assay: yeast display titration).

Apparent Kd, inactive:
B1 no binding seen, B2 no binding seen, B3 no binding seen, B4 no binding seen, B5 no binding seen, B6 no binding seen, B7 no binding seen, B8 no binding seen, B9 no binding seen, B10 no binding seen, B11 no binding seen, B12 no binding seen, B13 no binding seen, B14 no binding seen, B15 no binding seen, B16 no binding seen, B17 no binding seen, B18 > 1040 nM, B19 no binding seen, B20 no binding seen, B21 no binding seen, B22 no binding seen, B23 no binding seen, B24 no binding seen, B25 no binding seen, B26 no binding seen, B27 no binding seen, B28 no binding seen, B29 no binding seen, B30 no binding seen, B31 no binding seen, B32 no binding seen, B33 no binding seen, B34 no binding seen, B35 no binding seen, B36 no binding seen, B37 no binding seen
